## Library screen at single concentrations

Amino acid sequences for entries named in this document (tags omitted). Residues count along the entry.
UniProt Q4DA54, 1-478: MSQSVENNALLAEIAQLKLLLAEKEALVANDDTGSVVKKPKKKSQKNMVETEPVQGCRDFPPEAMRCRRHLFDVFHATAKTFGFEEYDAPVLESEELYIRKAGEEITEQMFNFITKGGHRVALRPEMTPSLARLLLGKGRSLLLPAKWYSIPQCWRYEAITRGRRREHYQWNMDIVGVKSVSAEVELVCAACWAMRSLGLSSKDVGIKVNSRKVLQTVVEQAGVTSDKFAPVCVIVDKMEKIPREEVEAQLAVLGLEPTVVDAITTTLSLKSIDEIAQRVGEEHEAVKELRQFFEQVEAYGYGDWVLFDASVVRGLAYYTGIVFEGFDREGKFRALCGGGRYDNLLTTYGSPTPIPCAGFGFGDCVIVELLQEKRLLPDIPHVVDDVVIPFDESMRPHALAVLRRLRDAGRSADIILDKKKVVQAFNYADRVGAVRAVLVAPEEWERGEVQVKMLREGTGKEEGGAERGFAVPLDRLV

The filed quantity is “Percent Effect” (%).
The record does not define 0% and 100%; most values in the screen are far below 50% and negative numbers occur (in some assays of this library far below -100).
The compounds are a random part of those screened.

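Enzyme assay of histidyl-tRNA synthetase; the read-out is not stated. Target: Histidine-tRNA ligase, Trypanosoma cruzi CL Brener (UniProt Q4DA54). Concentration: 30 µM. The record gives no direction; compounds that gave an IC50 in retests scored well above the rest, so higher reads as stronger inhibition. Of about 69,000 compounds tested this way, about 31 (0.045%) reached 50% or more in at least one test.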

Compound,effect
c1cc(-c2nnn3c2COC(CNCC2CCOCC2)C3)ccn1 (stereo not given),-8.046%
CCN1Cc2nc(OC)c(CNC(=O)C3CCCN(C)C3)cc2C1=O (stereo not given),7.071%
CCCc1n[nH]c(C2CN(CCC(F)(F)F)CCO2)n1 (stereo not given),1.127%
COc1ccc2c(ccn2CCC(=O)/N=c2\[nH]nc(C3CCCO3)s2)c1 (stereo not given),4.95%
N#Cc1ccc(OC[C@]23COC[C@H]2CN(Cc2nccs2)C3)nc1,1.754%
CC1CCN(S(=O)(=O)NCCCn2cncn2)CC1,2.632%
O=C(NC1CC1)c1cnc(-c2noc3cc(N4CCCCC4)ccc23)s1,6.135%
CC1CN(C)c2ccccc2CN1C(=O)c1cc(C#N)cn1C (stereo not given),-2.128%
CC(C)(C)n1ncc2c1NC(=O)CC2c1ccccc1 (stereo not given),-0.8264%
Cc1nnc2n1CCN(CC(=O)NC(C)c1cccc3ccccc13)C2 (stereo not given),7.595%
O=C(NCc1cccnc1)N1CCc2ncnc(NC3CC3)c2CC1,8.466%
CC(C)c1cc(N2CCN(c3ccc(O)cc3)CC2)n2nccc2n1,7.438%
CC/N=c1\c(NC(=O)C(C)(C)C)c(O)oc2ccccc12,1.754%
c1ccc(CCNc2ncnc3c2CCN(Cc2c[nH]cn2)CC3)cc1,8.8%
Cc1cc(C)cc(C(=O)N2CCCN(CC(N)=O)CC2)c1,-2.439%
COc1ccc(Cc2nnc(SC)o2)cc1OC,5.394%
O=C(CN1CCc2cncnc2C1)N1CCc2sccc2C1,13.4%
CNc1nc2c(c(C(=O)N3CCCC3)n1)CN(C(=O)CCSC)CC2,5.025%
CNC(=O)CN1C(=O)CCC12CCCN(CCc1ccccc1)C2 (stereo not given),7.767%
OC(CN1CCN(Cc2ccc(F)cc2)CC1)C1CC1 (stereo not given),-15.7%
NC(=O)c1cc(C2CCCN(CCOc3cccc(F)c3)C2)n[nH]1 (stereo not given),6.745%
CS(=O)(=O)NC[C@]12COC[C@H]1CN(C(=O)c1ccoc1)C2,2.174%
NC(=O)c1cccc(CCNCc2cnc(-c3cccs3)s2)c1,10.92%
Cc1noc(C)c1CCC(=O)NC(C)c1nnc2n1CCCCC2 (stereo not given),-2.326%
CCN(CC)CCn1ccnc1-c1cccc(C#N)c1,3.191%
COc1c(C(=O)N2CCOC(c3cccs3)C2)c(C)nn1C (stereo not given),8.387%
CS(=O)(=O)N1CCOCC12CCN(Cc1ccoc1)CC2,0%
CCn1cc(-c2cc(C(F)(F)F)n(CCCN)n2)cn1,8.092%
CCc1nc2ccccc2n1C(CC)C(=O)N(C)Cc1noc(C)n1 (stereo not given),1.442%
CC1CCN(C(=O)CN2CC(c3nc(C4CC4)no3)C2)CC1,-1.212%
COCCN1C(=O)CC[C@@H]2[C@H]1CCN2S(=O)(=O)c1cccs1,1.105%
CC(=O)N1CCCC(Cc2cnc(-n3ccnc3)cn2)C1 (stereo not given),-3.731%
Cc1cc(NC(=O)CN2CCn3c(nnc3C(C)C)C2)no1,-3.396%
O=C(Cc1ccsc1)N1Cc2nc(CN3CCCCC3)oc2C1,1.105%
COc1ccc(C2Nc3ccccc3C3=NCCCN32)cc1OC (stereo not given),4.918%
Cc1cc(C)n(C2CCN(S(=O)(=O)N3CCOCC3)CC2)n1,4.981%
COc1c(CNCC(O)c2ccccc2F)c(C(C)C)nn1C (stereo not given),1.724%
O=C(c1ccc2c(c1)CCC2)N1CCCCC1C1OCCO1 (stereo not given),12.07%
Cc1c[nH]c(CN2CCOC(c3ccc(Cl)c(Cl)c3)C2)c(C)c1=O (stereo not given),8.247%
NCc1n[nH]c(=O)n1-c1cccc(Cl)c1Cl,7.2%
CN1CCN([C@H]2COC[C@@H]3CN(Cc4cccnc4)C[C@@H]32)CC1,11.22%
Cc1ccc(C(=O)N2CCCC(C(=O)N3CCCCC3)C2)c(O)c1 (stereo not given),3.759%
CCC(C)(NCC(=O)Nc1ccccc1)c1nc(C)cs1 (stereo not given),-1.695%
CCC(C(=O)NCc1noc(Cc2cccs2)n1)n1cccn1 (stereo not given),-1.932%
COc1ccc2c(c1)ncn2C[C@]1(O)CCCN2CCCC[C@@H]21,5.473%
CCc1ccc(CN2C[C@H](OC)[C@H]3COC[C@H]32)o1,13.33%
CN(C)CCN(Cc1ccsc1)C(=O)C1=NNC(=O)CC1,0%
CCN1CCC(NC(=O)CN2CCCC2Cn2cccn2)CC1 (stereo not given),4.124%
Cc1cnn(CC(C)NCC(=O)NCCc2cccs2)c1 (stereo not given),0.6369%
CC(C)N1CCO[C@H]2CN(C(=O)c3ccncc3F)C[C@H]21,0%
CN1CCOC(CNCc2coc(-c3ccc(Cl)cc3)n2)C1 (stereo not given),7.558%
Cc1cc(I)c2c(c1)C(=O)C(CN1CCCC1)(CN1CCCC1)CO2,-9.249%
COCCOCC(=O)N(Cc1cccc(C)c1)C(C)C,3.191%
c1cnc(NCc2nnn3c2CN(Cc2ccsc2)CCC3)nc1,5.521%

Repeated from the top, 4 entries:

Compound	effect
c1cc(-c2nnn3c2COC(CNCC2CCOCC2)C3)ccn1 (stereo not given)	-8.046%
CCN1Cc2nc(OC)c(CNC(=O)C3CCCN(C)C3)cc2C1=O (stereo not given)	7.071%
CCCc1n[nH]c(C2CN(CCC(F)(F)F)CCO2)n1 (stereo not given)	1.127%
COc1ccc2c(ccn2CCC(=O)/N=c2\[nH]nc(C3CCCO3)s2)c1 (stereo not given)	4.95%

Measurements from “University of Dundee, Small-Polar-MMV Screening Library” (2021), ChEMBL document CHEMBL3988442.